The values that follow come from PMC5457407.

Sequences of proteins named here, by UniProt entry; tags and fusion partners are left off. Residues count along the entry.
UniProt Q99KR7, residues 30-206: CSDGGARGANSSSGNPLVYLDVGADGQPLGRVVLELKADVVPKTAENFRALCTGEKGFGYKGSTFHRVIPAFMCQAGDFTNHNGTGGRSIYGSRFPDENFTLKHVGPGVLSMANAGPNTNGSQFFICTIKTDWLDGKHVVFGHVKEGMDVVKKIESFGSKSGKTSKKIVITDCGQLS

The target in the test is cyclophilin D (mouse (endogenous in myocardial cells isolated from C57 mice)) (UniProt Q99KR7). Briefly: co-IP; lysates of myocardial cells isolated from sham, TAC and AST-treated TAC mice; incubated with anti-PPARα or anti-CypD antibodies overnight at 4 °C, harvested with protein A/G-agarose beads, immunoblotted for CypD and PPARα.

No constants are given. Whether binding was seen depends on the method and setting. In cells and extracts the contact can be indirect. Some binding calls cover weakened binding; strength is not graded here.

B1: peroxisome proliferator-activated receptor alpha (protein, UniProt P23204 1-468)
chain: MVDTESPICPLSPLEADDLESPLSEEFLQEMGNIQEISQSIGEESSGSFGFADYQYLGSCPGSEGSVITDTLSPASSPSSVSCPVIPASTDESPGSALNIECRICGDKASGYHYGVHACEGCKGFFRRTIRLKLVYDKCDRSCKIQKKNRNKCQYCRFHKCLSVGMSHNAIRFGRMPRSEKAKLKAEILTCEHDLKDSETADLKSLGKRIHEAYLKNFNMNKVKARVILAGKTSNNPPFVIHDMETLCMAEKTLVAKMVANGVEDKEAEVRFFHCCQCMSVETVTELTEFAKAIPGFANLDLNDQVTLLKYGVYEAIFTMLSSLMNKDGMLIAYGNGFITREFLKNLRKPFCDIMEPKFDFAMKFNALELDDSDISLFVAAIICCGDRPGLLNIGYIEKLQEGIVHVLKLHLQSNHPDDTFLFPKLLQKMVDLRQLVTEHAQLVQVIKKTESDAALHPLLQEIYRDMY
As to B1, the binding entry is given as “binds”.
